# Experimental data taken from PubChem BioAssay AID493014 (National Center for Advancing Translational Sciences (NCATS), 2011).
# The other results are listed elsewhere or left out. The main result of the screen is listed elsewhere. These columns were measured beside it and carry no call. Most of these compounds were active or inconclusive in the main read-out, so they are no random draw. Words in brackets tell the shape of the fitted curve; partial curves, single points and poor fits give uncertain potencies.
# Assay: qHTS Assay to Find Inhibitors of Chronic Active B-Cell Receptor Signaling
# Settings: ABC-DLBCL IkBa-CBG/CBR reporter, luminescence ratio (green luciferase fused to IkBa over red control in TMD8 lymphoma cells), 4 h
# Procedure, shortened: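 TMD8 ABC-DLBCL cells carrying doxycycline-inducible green luciferase fused to IkappaBalpha plus unfused red luciferase were exposed to compounds (up to 46 uM) for 4 hrs at 37C. Activity came from the overlap-corrected green/red luminescence ratio.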
# [1] = measured here: CBR red luminescence, cell number
smiles,measurement,setting,value
C[C@]12CC[C@@H]3c4ccc(O)cc4CC[C@H]3[C@@H]1CC[C@@H]2OC(=O)CCC(=O)O,AC50,[1],"0.92 µM [rising, partial curve]"
COc1cc(/C=N/NC(=O)c2cc(O)cc(O)c2)ccc1OC(=O)c1ccccc1,AC50,[1],"10 µM [falling, partial curve, poor fit]"
Cc1nn(CC(=O)NCCCc2ccccc2)c(=O)c2cccn12,AC50,[1],"35.5 µM [rising, single point]"
COc1ccc(-c2cc3nnc(-c4ccccc4)nc3s2)cc1,AC50,[1],"0.013 µM [falling, full curve, poor fit]"
CN(C(=O)c1cc2nc(-c3ccco3)cc(C(F)(F)F)n2n1)C1CCCCC1,AC50,[1],"1.12 µM [falling, full curve, poor fit]"
Cc1ccccc1OCCC(=O)Nc1ccc(S(=O)(=O)N(C)C2CCN(C)CC2)cc1,AC50,[1],"18.4 µM [falling, partial curve, poor fit]"
CCCCC(=O)Nc1c(-c2ccc(OC)c(OC)c2)c(=O)c2ccccc2n1C,AC50,[1],"22.4 µM [rising, partial curve, poor fit]"
CCN1CC(CN(C)Cc2nc(-c3ccco3)oc2C)CC1=O (configuration not stated),AC50,[1],"0.251 µM [rising, full curve, poor fit]"
O=C1N[C@H](Cc2ccccc2)COC(=O)[C@H](Cc2ccc(F)cc2)C/C=C\C[C@@H]1CC(=O)N(CCO)Cc1ccccc1,AC50,[1],"0.731 µM [falling, full curve, poor fit]"
CCn1c(=O)cc(SCC(=O)N2CCN(c3ccccc3F)CC2)c2ccccc21,AC50,[1],"0.447 µM [rising, full curve, poor fit]"
COc1cccc(NC(=O)CN(C)C(=O)c2cc(C3CC3)nn2-c2ccccc2)c1,AC50,[1],"25.9 µM [falling, single point]"
CC1(C)CNC(=O)c2sc(NC(=O)c3ccccc3)nc2C1,AC50,[1],"1.58 µM [falling, full curve]"
NN/C(=C\[N+](=O)[O-])Nc1ccccc1,AC50,[1],"8.91 µM [falling, partial curve]"
COc1ccc(F)cc1S(=O)(=O)N1CCN(c2ccccn2)CC1,AC50,[1],"11.2 µM [rising, partial curve, poor fit]"
N#CCCn1ccc(NC(=O)c2ccc(Cl)cc2)n1,AC50,[1],"3.66 µM [rising, partial curve, poor fit]"
COc1ccc(-c2nncnn2)cc1,AC50,[1],"29.1 µM [falling, partial curve, poor fit]"
CCOC(=O)c1nc(-c2ccc3c(c2)OCO3)[nH]c1C,AC50,[1],"29.1 µM [falling, single point]"
Fc1ccc(/C=N/n2c(-c3cccs3)n[nH]c2=S)cc1,AC50,[1],"1.84 µM [rising, partial curve, poor fit]"
O=[N+]([O-])c1ccc(CSc2ccccn2)cc1,AC50,[1],"35.5 µM [rising, single point]"
COc1cc(S(C)=O)ccc1-c1nc2ncccc2[nH]1 (configuration not stated),AC50,[1],"14.6 µM [falling, single point]"
CN(c1ccc(OCC(=O)OCc2nnc(-c3ccccc3)o2)cc1)S(=O)(=O)c1ccc(Cl)cc1,AC50,[1],"6.51 µM [rising, single point]"
O=C(CSc1nc2ccccc2s1)N1c2ccccc2Sc2ccccc21,AC50,[1],"0.1 µM [rising, full curve, poor fit]"
COc1ccc(C2C(=O)N(C3CCCCC3)CC(=O)N2C2CCCCC2)cc1 (configuration not stated),AC50,[1],"2.91 µM [rising, single point]"
O=C(Nc1cccc(NC(=O)c2sc3ccccc3c2Cl)c1)c1ccco1,AC50,[1],"2.59 µM [falling, partial curve, poor fit]"
O=S(=O)(Nc1ccc(-c2nnc(SCc3ccc(Cl)cc3)o2)cc1)c1ccccc1,AC50,[1],"16.4 µM [falling, single point]"
O=S(=O)(Nc1ccc(Cl)c(Cl)c1)N1CCOCC1,AC50,[1],"31.6 µM [rising, single point]"
CCOc1ccc(NC(=O)CN(C)C(=O)c2ccccc2OCc2cccc(C)c2)cc1OCC,AC50,[1],"18.4 µM [falling, single point]"
Cc1ccc2cc(C(c3nnnn3C3CCCC3)N(Cc3ccco3)Cc3cccs3)c(=O)[nH]c2c1 (configuration not stated),AC50,[1],"29.1 µM [rising, single point]"
COc1cc(NC(=O)C/C(C)=N/NC(=O)c2ccccn2)c(OC)cc1Cl,AC50,[1],"12.6 µM [falling, partial curve, poor fit]"
Cc1cccc(NC(=O)C2CCN(S(=O)(=O)c3ccc4ccccc4c3)CC2)n1,AC50,[1],"20.6 µM [falling, single point]"
O=C(N/N=C\c1ccc(OC(=O)c2cccs2)cc1)c1ccc(Cl)cc1,AC50,[1],"23.1 µM [falling, single point]"
Cc1ccnc(NC(=O)Nc2ccc(F)cc2)c1,AC50,[1],"12.6 µM [falling, single point]"
CC1CCN(c2nc(-c3ccc(Br)cc3)nc3ccccc23)CC1,AC50,[1],"0.0891 µM [rising, full curve, poor fit]"
Nc1[nH]n2c(=O)c3c(nc2c1N=Nc1ccccc1)CCCC3,AC50,[1],"0.891 µM [falling, full curve]"
COC(=O)c1sccc1NC(=O)NC1CCCCC1,AC50,[1],"4.47 µM [falling, partial curve]"
Cc1ccc2cc(CN(Cc3ccco3)C(=O)c3cccs3)c(=O)[nH]c2c1,AC50,[1],"0.651 µM [falling, partial curve, poor fit]"
CCOc1ccc(-c2nc(C#N)c(N3CCOCC3)o2)cc1,AC50,[1],"11.2 µM [rising, single point]"
Cn1cccc1/C=C1\SC(=Nc2ccc(O)cc2)NC1=O,AC50,[1],"5.01 µM [falling, partial curve]"
same,AC50,measured here: IkBa-CBG green luminescence,"2.24 µM [falling, full curve]"
COc1cc(/C=C(\C#N)C(=O)NCc2ccccc2)ccc1OCc1ccc(C(=O)O)cc1,AC50,[1],"10 µM [falling, partial curve, poor fit]"
COc1cc(CNCCO)cc(Br)c1OCc1ccccc1,AC50,[1],"14.1 µM [falling, single point]"
Cc1c(/C=N\NC(=O)c2cccc(F)c2)cnn1C,AC50,[1],"18.4 µM [falling, single point]"

# Part of the list above, with tabs:
smiles	measurement	setting	value
COc1cc(/C=C(\C#N)C(=O)NCc2ccccc2)ccc1OCc1ccc(C(=O)O)cc1	AC50	[1]	10 µM [falling, partial curve, poor fit]
COc1cc(CNCCO)cc(Br)c1OCc1ccccc1	AC50	[1]	14.1 µM [falling, single point]
